Results deposited as PubChem BioAssay AID504793 (Drosophila RNAi Screening Center, 2011).

- Purpose: 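Whole-genome screen for parts of the DNA damage checkpoint at G2/M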 (primary screen)
- Cell system: Drosophila S2R+ cells
- Reagent: long dsRNA against Drosophila genes, about 0.25 µg dsRNA per well
- Timing: 4 days of dsRNA, then 4 hours of drug before read-out
- Conditions: doxorubicin 0.5 µM for 4 hours to cause double-strand breaks, in cells also given a low, harmless dose of dsRNA against nbs to sensitise the assay
- Read-out: 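Mitotic index as the number of phospho-histone H3-positive cells in each well following doxorubicin, given as raw counts without normalisation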
- Direction: mitotic cells: higher = more cells in mitosis, weaker G2 arrest
- Rule for the call: 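a call needs confirmation in secondary tests, with other dsRNAs and a check of mitotic timing without damage, not just a high primary count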
- Calls: active = confirmed in follow-up tests; inactive = not confirmed
The screen tested about 23,000 reagents; below is a random part of those with a known target gene and a result. In the full data, 62 (0.27%) were called active. 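Calls come from follow-up tests whose scores are not deposited, so confirmed genes may have low counts here; counts are not normalised per plate.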 Raw values vary from plate to plate and are shown uncorrected. Unmarked entries are inactive. Names joined by + are all predicted targets of the reagent.

predicted target | PubChem SID | mitotic cells, replicate 1
CG11898 | SID104194224 | 8
CG11898 | SID104206450 | 6
ProtB (Protamine B) | SID104183165 | 2
ProtB (Protamine B) | SID104205971 | 9
vito (viriato) | SID104201442 | 14
vito (viriato) | SID104203436 | 6
Rab3GAP1 (RAB3 GTPase activating protein subunit 1) | SID104180083 | 3
Rab3GAP1 (RAB3 GTPase activating protein subunit 1) | SID104180495 | 8
Rab3GAP1 (RAB3 GTPase activating protein subunit 1) | SID104207532 | 8
CG2021 | SID104188338 | 5
CG2021 | SID104205826 | 3
Diedel | SID104194109 | 7
Diedel | SID104206067 | 2
Cog4 (Component of oligomeric golgi complex 4) | SID104182849 | 5
CG18139 (retired record) + Hmx | SID104195099 | 7
CG6026 | SID104195742 | 12
Fign (Fidgetin) | SID104180384 | 3
Pgant3 (Polypeptide N-Acetylgalactosaminyltransferase 3) | SID104185734 | 4
Pgant3 (Polypeptide N-Acetylgalactosaminyltransferase 3) | SID104207796 | 3
mio (missing oocyte) | SID104180484 | 10
mio (missing oocyte) | SID104201632 | 6
CG42720 (retired record) | SID104201985 | 9
CG42720 (retired record) | SID104208355 | 8
CG12268 | SID104194283 | 9
CG12268 | SID104207299 | 9
CG31464 | SID104194137 | 4
CHMP2B (Charged multivesicular body protein 2b) | SID104190228 | 3
CHMP2B (Charged multivesicular body protein 2b) | SID104204765 | 6
CG13081 | SID104181977 | 4
CG13751 | SID104186214 | 5
CG15628 | SID104180048 | 5
CG15628 | SID104180255 | 7
CG15572 | SID104203545 | 9
CG32188 | SID104189302 | 16
CG15539 | SID104194867 | 12
ms(3)76Ba (male sterile (3) 76Ba) | SID104189883 | 7
Hem (HEM-protein) | SID104191657 | 9
Gs2 (Glutamine synthetase 2) | SID104200042 | 17
Gs2 (Glutamine synthetase 2) | SID104205362 | 11
Prx1 (Peroxiredoxin 1) | SID104190533 | 3
Prx1 (Peroxiredoxin 1) | SID104203171 | 2
CheB93a (Chemosensory protein B 93a) | SID104194836 | 6
fwd (four wheel drive) | SID104188372 | 4
fwd (four wheel drive) | SID104205224 | 8
Pkd2 (Polycystic kidney disease 2) | SID104182754 | 5
Pkd2 (Polycystic kidney disease 2) | SID104206066 | 2
Ipp (Inositol polyphosphate 1-phosphatase) | SID104196510 | 2
Ipp (Inositol polyphosphate 1-phosphatase) | SID104204602 | 9
RpL13A (Ribosomal protein L13A) | SID104192057 | 7
RpL13A (Ribosomal protein L13A) | SID104205841 | 8
CG7519 | SID104191626 | 9
zyd (zydeco) | SID104200508 | 5
CG9313 | SID104184332 | 9
CG9313 | SID104205585 | 7
Su(H) (Suppressor of Hairless) | SID104183237 | 10
CG32188 + CG32189 | SID104207354 | 10
CG7094 | SID104182797 | 3
CG7094 | SID104208500 | 7
Rh5 (Rhodopsin 5) | SID104183204 | 4
Rh5 (Rhodopsin 5) | SID104203975 | 10
Kdsr (3-ketodihydrosphingosine reductase) | SID104194037 | 14
CG2955 | SID104180344 | 4
PAPLA1 (Phosphatidic Acid Phospholipase A1) | SID104182887 | 2
PAPLA1 (Phosphatidic Acid Phospholipase A1) | SID104182888 | 7
CG9377 | SID104183009 | 5
mfrn (mitoferrin) | SID104195479 | 10
wts (warts) | SID104202332 | 8
wts (warts) | SID104204310 | 5
qkr58E-3 (quaking related 58E-3) | SID104184503 | 2
CG10035 | SID104193969 | 1
CG10035 | SID104207207 | 4
CG13148 | SID104186067 | 2
CG14882 | SID104194798 | 2
CG14882 | SID104206862 | 5
AdipoR (Adiponectin receptor) | SID104195559 | 7
CG7747 | SID104186830 | 5
CG7747 | SID104205289 | 10
CG5290 | SID104190293 | 7
CG5290 | SID104208585 | 5
Ptpa (Phosphotyrosyl phosphatase activator) | SID104180568 | 5
Ptpa (Phosphotyrosyl phosphatase activator) | SID104207291 | 4
CG3792 | SID104182517 | 2
THADA | SID104202754 | 4
wnd (wallenda) | SID104190838 | 4
wnd (wallenda) | SID104201144 | 23
Or13a (Odorant receptor 13a) | SID104200057 | 11
Bub1 (Bub1 kinase) | SID104202515 | 13
Bub1 (Bub1 kinase) | SID104205980 | 2
Gcn5 (Gcn5 acetyltransferase) | SID104191040 | 7
Gcn5 (Gcn5 acetyltransferase) | SID104205476 | 4
Cyp6v1 (Cytochrome P450 6v1) | SID104200357 | 4
Cyp6v1 (Cytochrome P450 6v1) | SID104207791 | 4
LysD + LysB + LysC (retired record) | SID104201041 | 10
CG7988 | SID104196150 | 13
tinc (tincar) | SID104194590 | 7
tinc (tincar) | SID104194591 | 5
tinc (tincar) | SID104196100 | 7
tinc (tincar) | SID104196101 | 12
Tep3 (Thioester-containing protein 3) | SID104183244 | 4
heca (headcase) | SID104202347 | 6
heca (headcase) | SID104204340 | 4
MFS10 (Major Facilitator Superfamily Transporter 10) | SID104199680 | 6
MFS10 (Major Facilitator Superfamily Transporter 10) | SID104205504 | 9
Prm (Paramyosin) | SID104188733 | 11
Prm (Paramyosin) | SID104188734 | 7
Prm (Paramyosin) | SID104191047 | 16
Prm (Paramyosin) | SID104205473 | 6
sau (sauron) | SID104180486 | 2
CG33464 (retired record) | SID104202293 | 8
CG14464 | SID104187552 | 8
